Results: the supplement of paper PMC10849652
The list shows a part of the results.

Sequences of proteins named here, by UniProt entry; tags and fusion partners are left off. A change or cut given only in a name is not applied to a line headed by its entry.
UniProt Q9UK76: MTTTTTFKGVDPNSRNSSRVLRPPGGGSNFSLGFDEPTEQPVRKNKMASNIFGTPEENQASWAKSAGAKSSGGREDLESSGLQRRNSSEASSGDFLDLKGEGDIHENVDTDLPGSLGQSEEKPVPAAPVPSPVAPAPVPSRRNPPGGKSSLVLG
UniProt Q96AB3: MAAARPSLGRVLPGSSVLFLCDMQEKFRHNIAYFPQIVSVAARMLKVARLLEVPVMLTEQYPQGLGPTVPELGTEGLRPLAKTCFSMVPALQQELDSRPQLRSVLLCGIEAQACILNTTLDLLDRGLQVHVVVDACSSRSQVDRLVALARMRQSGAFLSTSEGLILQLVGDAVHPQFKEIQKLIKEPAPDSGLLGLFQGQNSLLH
UniProt O43736: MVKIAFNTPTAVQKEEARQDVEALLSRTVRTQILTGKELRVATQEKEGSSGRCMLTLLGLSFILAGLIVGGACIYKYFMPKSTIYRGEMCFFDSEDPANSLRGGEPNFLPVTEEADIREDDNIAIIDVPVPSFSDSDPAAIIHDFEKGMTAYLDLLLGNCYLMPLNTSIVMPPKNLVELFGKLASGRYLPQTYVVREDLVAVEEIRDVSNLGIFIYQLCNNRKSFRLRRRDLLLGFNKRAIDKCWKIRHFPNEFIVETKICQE
UniProt Q96SI1: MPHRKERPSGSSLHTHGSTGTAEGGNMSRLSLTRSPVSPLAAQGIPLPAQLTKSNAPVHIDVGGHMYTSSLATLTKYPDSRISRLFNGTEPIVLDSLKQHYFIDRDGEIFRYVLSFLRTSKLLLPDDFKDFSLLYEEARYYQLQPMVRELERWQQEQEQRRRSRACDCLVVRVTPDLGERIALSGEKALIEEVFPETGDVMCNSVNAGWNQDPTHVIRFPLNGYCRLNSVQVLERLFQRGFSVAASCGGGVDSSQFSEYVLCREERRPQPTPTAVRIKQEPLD
UniProt Q8NB78: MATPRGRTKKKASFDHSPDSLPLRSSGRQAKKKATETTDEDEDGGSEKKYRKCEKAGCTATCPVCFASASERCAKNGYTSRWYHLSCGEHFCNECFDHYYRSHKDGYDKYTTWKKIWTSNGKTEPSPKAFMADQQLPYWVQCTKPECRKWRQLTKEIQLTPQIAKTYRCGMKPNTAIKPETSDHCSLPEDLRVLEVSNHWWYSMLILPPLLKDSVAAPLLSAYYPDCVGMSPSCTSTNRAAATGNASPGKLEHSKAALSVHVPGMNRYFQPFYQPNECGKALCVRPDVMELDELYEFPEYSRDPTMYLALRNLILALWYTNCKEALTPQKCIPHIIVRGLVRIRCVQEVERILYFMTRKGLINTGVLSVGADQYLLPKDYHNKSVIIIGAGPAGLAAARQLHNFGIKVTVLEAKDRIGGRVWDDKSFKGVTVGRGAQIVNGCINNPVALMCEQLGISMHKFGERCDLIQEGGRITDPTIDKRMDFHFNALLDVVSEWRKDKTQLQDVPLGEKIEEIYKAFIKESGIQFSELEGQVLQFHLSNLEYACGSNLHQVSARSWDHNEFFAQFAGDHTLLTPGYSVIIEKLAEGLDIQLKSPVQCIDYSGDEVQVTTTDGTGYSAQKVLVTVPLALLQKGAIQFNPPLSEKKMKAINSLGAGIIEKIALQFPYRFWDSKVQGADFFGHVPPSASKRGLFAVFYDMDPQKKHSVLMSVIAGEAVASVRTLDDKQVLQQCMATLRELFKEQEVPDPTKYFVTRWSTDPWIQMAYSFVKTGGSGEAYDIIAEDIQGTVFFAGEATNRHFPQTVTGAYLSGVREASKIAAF
UniProt Q7L273: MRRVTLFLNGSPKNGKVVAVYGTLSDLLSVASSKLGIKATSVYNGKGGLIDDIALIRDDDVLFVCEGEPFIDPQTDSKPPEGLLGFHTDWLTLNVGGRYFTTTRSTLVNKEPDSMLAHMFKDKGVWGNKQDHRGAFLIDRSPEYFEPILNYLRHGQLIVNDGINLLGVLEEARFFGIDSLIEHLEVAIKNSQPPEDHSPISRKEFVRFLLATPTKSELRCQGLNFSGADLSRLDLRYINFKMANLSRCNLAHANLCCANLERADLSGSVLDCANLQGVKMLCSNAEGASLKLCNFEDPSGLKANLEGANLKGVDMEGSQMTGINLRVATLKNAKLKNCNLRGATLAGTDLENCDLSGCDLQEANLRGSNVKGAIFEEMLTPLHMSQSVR
UniProt Q9BUE6: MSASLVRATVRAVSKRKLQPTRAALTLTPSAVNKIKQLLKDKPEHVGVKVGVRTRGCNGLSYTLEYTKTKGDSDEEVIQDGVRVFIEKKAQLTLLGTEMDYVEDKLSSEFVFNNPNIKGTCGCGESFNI
UniProt Q15046, whole entry, looked up: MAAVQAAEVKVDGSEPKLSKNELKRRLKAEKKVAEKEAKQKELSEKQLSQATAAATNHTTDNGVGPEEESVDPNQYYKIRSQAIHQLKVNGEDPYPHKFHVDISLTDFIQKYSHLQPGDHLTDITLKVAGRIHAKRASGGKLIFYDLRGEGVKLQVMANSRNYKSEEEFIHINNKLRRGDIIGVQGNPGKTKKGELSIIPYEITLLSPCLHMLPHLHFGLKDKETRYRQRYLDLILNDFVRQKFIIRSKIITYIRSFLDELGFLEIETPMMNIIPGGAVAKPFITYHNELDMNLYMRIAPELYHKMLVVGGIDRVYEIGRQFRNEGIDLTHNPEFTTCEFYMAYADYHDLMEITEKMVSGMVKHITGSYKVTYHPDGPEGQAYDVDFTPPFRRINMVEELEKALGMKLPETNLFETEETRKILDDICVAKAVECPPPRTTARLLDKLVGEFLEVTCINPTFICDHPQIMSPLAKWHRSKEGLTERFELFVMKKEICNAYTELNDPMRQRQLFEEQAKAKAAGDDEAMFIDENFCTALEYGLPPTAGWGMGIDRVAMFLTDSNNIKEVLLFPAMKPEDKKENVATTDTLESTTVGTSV
UniProt Q9Y597: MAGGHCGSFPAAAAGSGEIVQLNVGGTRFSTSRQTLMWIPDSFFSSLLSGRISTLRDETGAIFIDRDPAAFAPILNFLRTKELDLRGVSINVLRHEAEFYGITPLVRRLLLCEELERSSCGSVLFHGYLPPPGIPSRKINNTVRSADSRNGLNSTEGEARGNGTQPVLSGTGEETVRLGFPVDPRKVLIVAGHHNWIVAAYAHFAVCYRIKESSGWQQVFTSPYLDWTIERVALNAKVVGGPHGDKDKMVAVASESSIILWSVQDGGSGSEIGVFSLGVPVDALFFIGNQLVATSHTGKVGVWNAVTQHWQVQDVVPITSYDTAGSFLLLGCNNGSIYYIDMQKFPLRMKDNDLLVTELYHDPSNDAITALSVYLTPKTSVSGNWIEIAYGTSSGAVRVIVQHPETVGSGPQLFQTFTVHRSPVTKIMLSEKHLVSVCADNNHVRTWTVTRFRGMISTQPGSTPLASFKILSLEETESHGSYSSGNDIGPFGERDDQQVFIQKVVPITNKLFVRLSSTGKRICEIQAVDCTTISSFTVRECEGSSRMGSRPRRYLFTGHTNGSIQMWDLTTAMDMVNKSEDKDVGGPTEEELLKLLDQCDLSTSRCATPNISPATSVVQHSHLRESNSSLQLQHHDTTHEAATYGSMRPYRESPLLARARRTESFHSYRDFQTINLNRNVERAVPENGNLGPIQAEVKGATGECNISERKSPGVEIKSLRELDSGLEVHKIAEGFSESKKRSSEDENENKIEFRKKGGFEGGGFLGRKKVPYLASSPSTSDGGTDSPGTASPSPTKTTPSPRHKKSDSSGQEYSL
UniProt Q96HW7, whole entry, looked up: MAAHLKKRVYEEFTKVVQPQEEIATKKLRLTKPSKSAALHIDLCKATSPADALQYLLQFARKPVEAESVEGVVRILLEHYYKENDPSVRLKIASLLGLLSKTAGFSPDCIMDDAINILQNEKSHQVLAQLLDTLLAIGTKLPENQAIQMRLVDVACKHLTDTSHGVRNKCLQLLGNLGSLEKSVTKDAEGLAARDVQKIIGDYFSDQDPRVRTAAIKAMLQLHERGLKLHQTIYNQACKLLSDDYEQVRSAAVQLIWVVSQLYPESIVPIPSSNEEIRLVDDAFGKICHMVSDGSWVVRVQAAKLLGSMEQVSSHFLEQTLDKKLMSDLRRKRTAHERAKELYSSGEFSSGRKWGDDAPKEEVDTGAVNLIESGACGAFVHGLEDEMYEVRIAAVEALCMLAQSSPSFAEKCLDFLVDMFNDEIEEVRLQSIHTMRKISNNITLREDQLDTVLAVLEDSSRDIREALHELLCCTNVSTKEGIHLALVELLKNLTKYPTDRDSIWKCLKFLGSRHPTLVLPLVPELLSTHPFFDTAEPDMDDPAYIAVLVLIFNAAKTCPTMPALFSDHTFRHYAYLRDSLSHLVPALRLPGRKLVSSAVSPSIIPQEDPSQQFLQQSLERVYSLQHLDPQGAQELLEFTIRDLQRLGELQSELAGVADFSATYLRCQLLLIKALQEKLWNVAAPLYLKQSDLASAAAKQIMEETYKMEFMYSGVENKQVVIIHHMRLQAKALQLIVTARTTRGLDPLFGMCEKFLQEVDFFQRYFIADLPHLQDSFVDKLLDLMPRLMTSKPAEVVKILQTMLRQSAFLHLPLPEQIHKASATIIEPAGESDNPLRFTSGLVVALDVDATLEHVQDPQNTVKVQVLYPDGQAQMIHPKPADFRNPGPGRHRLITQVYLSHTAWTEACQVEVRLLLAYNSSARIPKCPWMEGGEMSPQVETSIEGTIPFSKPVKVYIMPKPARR
UniProt P05556, whole entry, looked up: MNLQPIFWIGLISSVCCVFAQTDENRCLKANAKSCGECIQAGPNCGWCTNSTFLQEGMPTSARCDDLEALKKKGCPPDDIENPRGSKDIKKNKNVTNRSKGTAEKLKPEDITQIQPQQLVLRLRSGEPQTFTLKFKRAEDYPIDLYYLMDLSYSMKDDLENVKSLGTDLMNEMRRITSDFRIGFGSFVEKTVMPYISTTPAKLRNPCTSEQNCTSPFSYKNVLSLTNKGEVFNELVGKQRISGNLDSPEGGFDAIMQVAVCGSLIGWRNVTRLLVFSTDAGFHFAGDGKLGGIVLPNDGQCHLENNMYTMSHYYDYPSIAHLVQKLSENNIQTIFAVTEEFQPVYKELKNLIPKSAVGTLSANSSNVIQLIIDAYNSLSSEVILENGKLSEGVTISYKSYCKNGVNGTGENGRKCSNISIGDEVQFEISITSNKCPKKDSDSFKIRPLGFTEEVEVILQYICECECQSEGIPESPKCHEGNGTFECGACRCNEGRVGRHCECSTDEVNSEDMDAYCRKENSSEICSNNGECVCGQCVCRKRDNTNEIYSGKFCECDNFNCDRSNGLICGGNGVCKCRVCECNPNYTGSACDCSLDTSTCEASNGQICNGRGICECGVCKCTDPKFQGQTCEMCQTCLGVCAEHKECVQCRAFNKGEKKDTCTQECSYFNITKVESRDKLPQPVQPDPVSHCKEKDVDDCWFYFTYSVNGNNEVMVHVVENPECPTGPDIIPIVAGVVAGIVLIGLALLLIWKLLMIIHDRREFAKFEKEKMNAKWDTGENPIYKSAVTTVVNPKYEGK
UniProt Q9NVX7: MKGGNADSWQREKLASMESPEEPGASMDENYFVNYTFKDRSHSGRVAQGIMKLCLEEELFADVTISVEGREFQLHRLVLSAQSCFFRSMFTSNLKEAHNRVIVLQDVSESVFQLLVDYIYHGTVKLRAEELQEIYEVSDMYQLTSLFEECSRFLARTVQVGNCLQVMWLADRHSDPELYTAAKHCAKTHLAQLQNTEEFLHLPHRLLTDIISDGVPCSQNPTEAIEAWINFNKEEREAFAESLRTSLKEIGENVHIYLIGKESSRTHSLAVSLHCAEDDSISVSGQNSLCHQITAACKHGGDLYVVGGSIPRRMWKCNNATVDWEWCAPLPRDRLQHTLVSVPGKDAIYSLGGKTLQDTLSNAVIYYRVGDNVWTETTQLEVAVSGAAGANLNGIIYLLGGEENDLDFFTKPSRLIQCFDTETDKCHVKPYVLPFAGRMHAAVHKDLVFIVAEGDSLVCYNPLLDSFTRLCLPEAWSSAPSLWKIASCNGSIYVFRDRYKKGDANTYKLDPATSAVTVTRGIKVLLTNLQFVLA
UniProt Q7Z5Y7: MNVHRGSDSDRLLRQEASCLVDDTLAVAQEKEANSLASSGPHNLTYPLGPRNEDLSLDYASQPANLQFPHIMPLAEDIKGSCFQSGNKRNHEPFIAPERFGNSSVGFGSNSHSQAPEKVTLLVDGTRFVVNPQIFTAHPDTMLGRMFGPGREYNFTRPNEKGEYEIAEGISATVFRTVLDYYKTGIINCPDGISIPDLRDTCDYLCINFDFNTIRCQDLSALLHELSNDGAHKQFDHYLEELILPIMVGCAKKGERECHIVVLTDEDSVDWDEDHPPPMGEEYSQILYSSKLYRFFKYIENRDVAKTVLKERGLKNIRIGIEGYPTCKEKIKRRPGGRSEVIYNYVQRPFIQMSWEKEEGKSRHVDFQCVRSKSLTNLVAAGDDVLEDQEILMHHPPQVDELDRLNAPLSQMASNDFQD
UniProt P33947: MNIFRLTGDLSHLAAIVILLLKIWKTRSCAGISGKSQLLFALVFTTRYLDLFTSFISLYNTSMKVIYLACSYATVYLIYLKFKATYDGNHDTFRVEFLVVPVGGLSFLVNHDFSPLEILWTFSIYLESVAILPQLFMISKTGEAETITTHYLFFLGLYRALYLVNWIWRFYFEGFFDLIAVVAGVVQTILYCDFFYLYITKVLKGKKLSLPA

Assays:
Experiment in all cases: log2 fold change, soluble protein after heating vs DMSO (PISA); higher = thermal stabilisation; K562 lysate, 10 uM; active = over 0.2 and 3.5 SD of the protein, either way, in both replicates (recomputed)
vemurafenib = compound: CCCS(=O)(=O)Nc1ccc(F)c(C(=O)c2c[nH]c3ncc(-c4ccc(Cl)cc4)cc23)c1F [vemurafenib]
Procedure, shortened: (§1)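 Values give the log-two fold change in thermal stability against solvent controls, from duplicates. Crude K562 extract at 1 mg/mL protein, made by dounce homogenisation in PBS pH 7.4 with 1 mM MgCl2, was treated with 10 μM compound for 30 min. After 3 min heating across 48°C-58°C, aliquots were pooled, adjusted to 0.5% NP-40 at 4°C and centrifuged at 21,000xg for 90 min. The supernatant was measured by TMTpro 16plex LC-MS/MS with channel sums equalised.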

[1] = compound: CCCS(=O)(=O)Nc1ccc(F)c(C(=O)c2c[nH]c3ncc(Cl)cc23)c1F
Procedure, shortened: as §1

barasertib = compound: CCN(CCCOc1ccc2c(Nc3cc(CC(=O)Nc4cccc(F)c4)[nH]n3)ncnc2c1)CCOP(=O)(O)O [barasertib]
Procedure, shortened: as §1

[2] = compound: CC[C@@H]1C(=O)N(C)c2cnc(Nc3ccc(C(=O)NC4CCN(C)CC4)cc3OC)nc2N1C1CCCC1
Procedure, shortened: as §1

volasertib = compound: CC[C@@H]1C(=O)N(C)c2cnc(Nc3ccc(C(=O)N[C@H]4CC[C@H](N5CCN(CC6CC6)CC5)CC4)cc3OC)nc2N1C(C)C [volasertib]
Procedure, shortened: as §1

[3] = compound: CCn1c(C(=O)N(C2CC2)C2CC2)cc2c3c(ncn3C)c(Nc3cc(C)n(C)n3)nc21
Procedure, shortened: as §1

[4] = compound: CCn1cc(-c2ccnc3[nH]c(-c4cccc(CN(C)C)c4)cc23)c(-c2ccc(NC(=O)N(C)C)cc2)n1
Procedure, shortened: as §1

[5] = compound: CN1CCC(CNc2ccc3ncc(-c4cccc(OC(F)(F)F)c4)n3n2)CC1
Procedure, shortened: as §1

saracatinib = compound: CN1CCN(CCOc2cc(OC3CCOCC3)c3c(Nc4c(Cl)ccc5c4OCO5)ncnc3c2)CC1 [saracatinib]
Procedure, shortened: as §1

sotrastaurin = compound: CN1CCN(c2nc(C3=C(c4c[nH]c5ccccc45)C(=O)NC3=O)c3ccccc3n2)CC1 [sotrastaurin]
Procedure, shortened: as §1

Measured: log2 fold change

IP6K1 (UniProt Q92551)
inactive: vemurafenib 0.013 | [1] 0.031 | barasertib -0.172 | [2] -0.01 | volasertib -0.114 | [3] 0.077 | [4] -0.113 | [5] 0 | saracatinib 0.126 | sotrastaurin 0.071

KAT14 (UniProt Q9H8E8)
inactive: vemurafenib 0.032 | [1] -0.026 | barasertib 0.078 | [2] 0.119 | volasertib -0.018

ISG15 (UniProt P05161)
inactive: vemurafenib 0.016 | [1] 0.009 | barasertib 0.015 | [2] 0.028 | volasertib -0.019 | [3] -0.08 | [4] -0.163 | [5] 0.043 | saracatinib -0.007 | sotrastaurin 0.028

JPT1 (UniProt Q9UK76)
inactive: vemurafenib 0.014 | [1] -0.019 | barasertib 0.105 | [2] 0.061 | volasertib 0.023 | [3] -0.014 | [4] -0.019 | [5] 0.014 | saracatinib -0.008 | sotrastaurin -0.015

ISOC2 (UniProt Q96AB3)
inactive: vemurafenib 0.048 | [1] 0.033 | barasertib -0.12 | [2] 0.096 | volasertib 0.013 | [3] -0.043 | [4] 0.02 | [5] -0.08 | saracatinib -0.047 | sotrastaurin 0.002

JMJD1C (UniProt Q15652)
inactive: vemurafenib 0.017 | [1] 0.057 | barasertib -0.021 | [2] 0.039 | volasertib -0.002 | [3] 0.037 | [4] 0.037 | [5] -0.002 | saracatinib 0.034 | sotrastaurin 0.008

ISOC1 (UniProt Q96CN7)
inactive: vemurafenib -0.066 | [1] -0.025 | barasertib -0.007 | [2] -0.045 | volasertib 0.035 | [3] -0.044 | [4] -0.057 | [5] 0.042 | saracatinib 0.01 | sotrastaurin 0.012

IPO5 isoform 3 (UniProt O00410)
inactive: vemurafenib 0.008 | [1] 0.008 | barasertib -0.036 | [2] -0.006 | volasertib 0.012 | [3] 0.027 | [4] 0.02 | [5] 0.008 | saracatinib -0.018 | sotrastaurin -0.015

ITM2A (UniProt O43736)
inactive: vemurafenib -0.051 | [1] 0.029 | barasertib 0.18 | [2] 0.102 | volasertib -0.005 | [3] -0.027 | [4] 0.091 | [5] -0.045 | saracatinib -0.006

IQGAP2 (UniProt Q13576)
inactive: vemurafenib 0.018 | [1] 0.022 | barasertib 0.029 | [2] -0.052 | volasertib -0.077 | [3] 0.023 | [4] 0 | [5] -0.082 | saracatinib 0.012 | sotrastaurin 0.021

KCTD15 (UniProt Q96SI1)
inactive: vemurafenib 0.016 | [1] -0.001 | barasertib -0.013 | [2] -0.081 | volasertib 0.002 | [3] 0.05 | [4] 0.035 | [5] 0.023 | saracatinib 0.011 | sotrastaurin -0.007

IPO9 (UniProt Q96P70)
inactive: vemurafenib -0.004 | [1] 0.008 | barasertib 0.003 | [2] -0.001 | volasertib 0.022 | [3] 0.007 | [4] -0.106 | [5] 0.058 | saracatinib -0.002 | sotrastaurin 0.008

KDM1B (UniProt Q8NB78)
inactive: vemurafenib -0.005 | [1] 0.029 | barasertib 0.014 | [2] -0.091 | volasertib -0.056 | [3] -0.03 | [4] 0.073 | [5] -0.042 | saracatinib 0.025 | sotrastaurin 0.018

KCTD9 (UniProt Q7L273)
inactive: vemurafenib 0.021 | [1] 0.025 | barasertib 0.014 | [2] -0.006 | volasertib -0.009 | [3] -0.055 | [4] -0.019 | [5] -0.007 | saracatinib 0.034 | sotrastaurin -0.018

INTS7 (UniProt Q9NVH2)
inactive: vemurafenib -0.059 | [1] -0.058 | barasertib 0.335 | [2] -0.073 | volasertib 0.013 | [3] 0.028 | [4] 0.027 | [5] 0.039 | saracatinib 0.005 | sotrastaurin -0.057

ITGB5 (UniProt P18084)
inactive: vemurafenib 0.069 | [1] -0.007 | barasertib 0.027 | [2] 0.035 | volasertib 0.026 | [3] 0.001 | [4] -0.073 | [5] 0.05 | saracatinib -0.026 | sotrastaurin -0.011

ISCA1 isoform 2 (UniProt Q9BUE6)
inactive: vemurafenib 0.007 | [1] -0.059 | barasertib 0.028 | [2] 0.042 | volasertib 0.03 | [3] -0.051 | [5] -0.21 | saracatinib 0.028 | sotrastaurin 0.021
active: [4] 0.425

IST1 (UniProt P53990)
inactive: vemurafenib 0 | [1] -0.01 | barasertib -0.035 | [2] -0.002 | volasertib -0.003 | [3] 0.033 | [4] 0.001 | [5] -0.001 | saracatinib -0.005 | sotrastaurin -0.033

KARS1 (UniProt Q15046)
inactive: vemurafenib 0.003 | [1] -0.002 | barasertib 0.002 | [2] -0.072 | volasertib -0.026 | [3] 0.024 | [4] 0.046 | [5] -0.052 | saracatinib 0.004 | sotrastaurin 0.004

KCTD3 (UniProt Q9Y597)
inactive: vemurafenib 0.009 | [1] 0.016 | barasertib 0.078 | [2] 0.063 | volasertib 0.024 | [3] -0.03 | [4] -0.005 | [5] 0.021 | saracatinib 0.004 | sotrastaurin 0.061

IRGQ (UniProt Q8WZA9)
inactive: vemurafenib -0.003 | [1] 0.007 | barasertib 0.084 | [2] 0.01 | volasertib -0.011 | [3] -0.013 | [4] -0.025 | [5] 0.013 | saracatinib 0.044 | sotrastaurin -0.002

INTS4 (UniProt Q96HW7)
inactive: vemurafenib 0.023 | [1] -0.012 | barasertib 0.015 | [2] -0.004 | volasertib 0.003 | [3] -0.001 | [4] -0.025 | [5] -0.044 | saracatinib 0.023 | sotrastaurin 0.022

Quoted from the listing (2 entries):
IRGQ (UniProt Q8WZA9)
inactive: vemurafenib -0.003 | [1] 0.007 | barasertib 0.084 | [2] 0.01 | volasertib -0.011 | [3] -0.013 | [4] -0.025 | [5] 0.013 | saracatinib 0.044 | sotrastaurin -0.002

INTS4 (UniProt Q96HW7)
inactive: vemurafenib 0.023 | [1] -0.012 | barasertib 0.015 | [2] -0.004 | volasertib 0.003 | [3] -0.001 | [4] -0.025 | [5] -0.044 | saracatinib 0.023 | sotrastaurin 0.022

Later entries

ITGB1 (UniProt P05556)
inactive: vemurafenib -0.011 | [1] 0.018 | barasertib -0.005 | [2] 0.032 | volasertib 0.021 | [3] -0.008 | [4] -0.004 | [5] 0.009 | saracatinib 0.01 | sotrastaurin 0.006

KATNB1 (UniProt Q9BVA0)
inactive: vemurafenib -0.024 | [1] 0.001 | barasertib 0.032 | [2] -0.087 | volasertib -0.02 | [3] 0.049 | [4] 0.039 | [5] -0.026 | saracatinib -0.044 | sotrastaurin 0.019

KBTBD4 isoform 2 (UniProt Q9NVX7)
inactive: vemurafenib 0 | [1] 0.021 | barasertib 0.013 | [2] 0.063 | volasertib -0.022 | [3] 0.031 | [4] -0.04 | [5] -0.032 | saracatinib 0.086 | sotrastaurin 0.032

KCTD20 (UniProt Q7Z5Y7)
inactive: vemurafenib 0.17 | [1] 0.02 | barasertib 0.052 | [2] 0.046 | volasertib 0.007 | [3] -0.055 | [4] 0.018 | [5] -0.037 | saracatinib 0.048 | sotrastaurin 0.025

KDELR2 (UniProt P33947)
inactive: vemurafenib 0.133 | [1] 0.018 | barasertib 0.036 | [2] 0.054 | volasertib 0.079 | [3] -0.058 | [4] 0.278 | [5] -0.089 | saracatinib 0.029 | sotrastaurin 0.063

JMJD6 isoform 3 (UniProt Q6NYC1)
inactive: vemurafenib 0.011 | [1] 0.01 | barasertib 0.006 | [2] -0.09 | volasertib 0.029 | [3] 0.009 | [4] 0.03 | [5] -0.032 | saracatinib 0.028 | sotrastaurin 0.015

ISYNA1 (UniProt Q9NPH2)
inactive: vemurafenib 0.019 | [1] 0.008 | barasertib 0.002 | [2] -0.013 | volasertib 0.035 | [3] -0.012 | [4] -0.063 | [5] 0.11 | saracatinib 0.011 | sotrastaurin 0.016

ITGA5 (UniProt P08648)
inactive: vemurafenib 0.009 | [1] 0.014 | barasertib -0.055 | [2] 0.008 | volasertib 0.025 | [3] -0.008 | [4] 0.005 | [5] 0.03 | saracatinib 0.011 | sotrastaurin 0.018
